{"source": "PubChem BioAssay AID1259405, NCATS | 2018", "test": "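Silenced genes that increase secreted GFP made by CHO cells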 (primary screen)", "cells": "Chinese hamster CHO-K1 ovary cells with stable secreted eGFP expression", "knock-down reagent": "single siRNA against mouse genes, 0.8 pmol siRNA per well (2 µl of 400 nM stock)", "timing": "3 days", "measurement": "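Percent of the per-plate non-targeting control median for intracellular GFP per well by laser scanning cytometry and for cell viability by ATP luminescence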", "scale": "GFP, % of control: higher = more GFP per well, higher productivity; viability (ATP), % of control: higher = more viable cells (more ATP)", "active means": "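Called active when intracellular GFP, relative to negative control, is at or above 120%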", "note": "This is a random part of about 50,000 deposited reagents. Over the whole deposit, about 4,000 (8%) are marked active. 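Mouse siRNA library applied to hamster cells; one well for each siRNA.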 Reagents against one gene are numbered here. No sequences are given here."}
{"gene":"Unc5cl (unc-5 family C-terminal like)","reagent":1,"GFP, % of control":82.7,"viability (ATP), % of control":49,"Call":"inactive"}
{"gene":"Unc5cl (unc-5 family C-terminal like)","reagent":2,"GFP, % of control":70.9,"viability (ATP), % of control":63.3,"Call":"inactive"}
{"gene":"Unc5cl (unc-5 family C-terminal like)","reagent":3,"GFP, % of control":87.3,"viability (ATP), % of control":94.5,"Call":"inactive"}
{"gene":"Ubqlnl (ubiquilin-like)","reagent":1,"GFP, % of control":197,"viability (ATP), % of control":94.1,"Call":"active"}
{"gene":"Ubqlnl (ubiquilin-like)","reagent":2,"GFP, % of control":46.1,"viability (ATP), % of control":31,"Call":"inactive"}
{"gene":"Ubqlnl (ubiquilin-like)","reagent":3,"GFP, % of control":85.4,"viability (ATP), % of control":98.9,"Call":"inactive"}
{"gene":"Sdf4 (stromal cell derived factor 4)","reagent":1,"GFP, % of control":108,"viability (ATP), % of control":106,"Call":"inactive"}
{"gene":"Sdf4 (stromal cell derived factor 4)","reagent":2,"GFP, % of control":114,"viability (ATP), % of control":63.7,"Call":"inactive"}
{"gene":"Capn7 (calpain 7)","reagent":1,"GFP, % of control":82.4,"viability (ATP), % of control":100,"Call":"inactive"}
{"gene":"Capn7 (calpain 7)","reagent":2,"GFP, % of control":91.5,"viability (ATP), % of control":103,"Call":"inactive"}
{"gene":"Capn7 (calpain 7)","reagent":3,"GFP, % of control":45.6,"viability (ATP), % of control":45,"Call":"inactive"}
{"gene":"Ttll12 (tubulin tyrosine ligase-like family, member 12)","reagent":1,"GFP, % of control":49.5,"viability (ATP), % of control":63.3,"Call":"inactive"}
{"gene":"Ttll12 (tubulin tyrosine ligase-like family, member 12)","reagent":2,"GFP, % of control":78.9,"viability (ATP), % of control":117,"Call":"inactive"}
{"gene":"Ttll12 (tubulin tyrosine ligase-like family, member 12)","reagent":3,"GFP, % of control":86.5,"viability (ATP), % of control":107,"Call":"inactive"}
{"gene":"Tlr2 (toll-like receptor 2)","reagent":1,"GFP, % of control":75,"viability (ATP), % of control":69.9,"Call":"inactive"}
{"gene":"Tlr2 (toll-like receptor 2)","reagent":2,"GFP, % of control":65.4,"viability (ATP), % of control":54.8,"Call":"inactive"}
{"gene":"Tlr2 (toll-like receptor 2)","reagent":3,"GFP, % of control":91.2,"viability (ATP), % of control":61,"Call":"inactive"}
{"gene":"Csrnp1 (cysteine-serine-rich nuclear protein 1)","reagent":1,"GFP, % of control":86.9,"viability (ATP), % of control":64.8,"Call":"inactive"}
{"gene":"Csrnp1 (cysteine-serine-rich nuclear protein 1)","reagent":2,"GFP, % of control":88.6,"viability (ATP), % of control":85,"Call":"inactive"}
{"gene":"Csrnp1 (cysteine-serine-rich nuclear protein 1)","reagent":3,"GFP, % of control":33.1,"viability (ATP), % of control":20.2,"Call":"inactive"}
{"gene":"Cdon (cell adhesion associated, oncogene regulated)","reagent":1,"GFP, % of control":68.3,"viability (ATP), % of control":58.4,"Call":"inactive"}
{"gene":"Cdon (cell adhesion associated, oncogene regulated)","reagent":2,"GFP, % of control":82,"viability (ATP), % of control":66.8,"Call":"inactive"}
{"gene":"Casp12 (caspase 12)","reagent":1,"GFP, % of control":71.5,"viability (ATP), % of control":87.6,"Call":"inactive"}
{"gene":"Casp12 (caspase 12)","reagent":2,"GFP, % of control":76.5,"viability (ATP), % of control":93.4,"Call":"inactive"}
{"gene":"Casp12 (caspase 12)","reagent":3,"GFP, % of control":51.1,"viability (ATP), % of control":58.1,"Call":"inactive"}
{"gene":"Frg1 (FSHD region gene 1)","reagent":1,"GFP, % of control":63.9,"viability (ATP), % of control":71.5,"Call":"inactive"}
{"gene":"Frg1 (FSHD region gene 1)","reagent":2,"GFP, % of control":61.4,"viability (ATP), % of control":68.6,"Call":"inactive"}
{"gene":"Frg1 (FSHD region gene 1)","reagent":3,"GFP, % of control":87.2,"viability (ATP), % of control":68.3,"Call":"inactive"}

A portion taken from the entries so far, for reference:
{"gene":"Ttll12 (tubulin tyrosine ligase-like family, member 12)","reagent":1,"GFP, % of control":49.5,"viability (ATP), % of control":63.3,"Call":"inactive"}
{"gene":"Ttll12 (tubulin tyrosine ligase-like family, member 12)","reagent":2,"GFP, % of control":78.9,"viability (ATP), % of control":117,"Call":"inactive"}
{"gene":"Ttll12 (tubulin tyrosine ligase-like family, member 12)","reagent":3,"GFP, % of control":86.5,"viability (ATP), % of control":107,"Call":"inactive"}
{"gene":"Tlr2 (toll-like receptor 2)","reagent":1,"GFP, % of control":75,"viability (ATP), % of control":69.9,"Call":"inactive"}
